Experimental data: the supplement of paper PMC7411640
Counter-ions that a name gives are not always drawn. This is one part of the list. Repeats in this data set agree poorly, so a single value says little.

Test system: MDA-MB-468
Assay: phospho-S6 immunofluorescence (DAPI-normalised), per-plate z-score; higher = higher phospho-S6 signal (less pathway suppression)
Conditions: 24 h
Description: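 GPCR-targeted compound library (MedChemExpress HY-L006) tested on MDA-MB-468 PTEN-null TNBC cells in 384-well plates at 0.1, 1 or 10 uM, combined with vehicle, GDC0941 450 nM or lapatinib 1 uM, for 24 h. Phospho-S6 (S240/244) immunofluorescence normalised to DAPI and expressed as a per-plate z-score; values are the mean of biological triplicates.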

[1] = compound 0.1 µM, co-treatment: GDC0941 450 nM
[2] = compound 0.1 µM, co-treatment: lapatinib 1 uM
[3] = compound 0.1 µM, co-treatment: vehicle
[4] = compound 1 µM, co-treatment: GDC0941 450 nM
[5] = compound 1 µM, co-treatment: lapatinib 1 uM
[6] = compound 1 µM, co-treatment: vehicle
[7] = compound 10 µM, co-treatment: GDC0941 450 nM
[8] = compound 10 µM, co-treatment: lapatinib 1 uM
[9] = compound 10 µM, co-treatment: vehicle

SMILES	phospho-S6 immunofluorescence (z-score) [1]	phospho-S6 immunofluorescence (z-score) [2]	phospho-S6 immunofluorescence (z-score) [3]	phospho-S6 immunofluorescence (z-score) [4]	phospho-S6 immunofluorescence (z-score) [5]	phospho-S6 immunofluorescence (z-score) [6]	phospho-S6 immunofluorescence (z-score) [7]	phospho-S6 immunofluorescence (z-score) [8]	phospho-S6 immunofluorescence (z-score) [9]
CCc1cnc(N2CCC(c3nc(COc4ccc(-n5cnnn5)cc4)cs3)CC2)nc1	-1.75	0.15	0.09	-4.91	-2.75	-1.67	-3.23	-3.56	-6.72
C#CCOc1ccc2c(c1)c(-c1ccc(C(C)C)cc1)nc(=O)n2C(C)C [Calcium-Sensing Receptor Antagonists I]	0.24	0.58	0.2	1.03	-0.07	0.49	-3.51	-4.39	-4.18
CN1CC2c3ccccc3Oc3ccc(Cl)cc3C2C1 (configuration not stated) [Asenapine (hydrochloride)]	-1.3	0.18	-0.02	-1.15	-1.24	-1.24			
NC(=O)C(c1ccccc1)(c1ccccc1)[C@@H]1CCN(CCc2ccc3c(c2)CCO3)C1 [Darifenacin (hydrobromide)]	-0.12	0.82	-0.22	-0.22	-0.5	-0.75	-1.6	-1.5	0.03
COC(=O)[C@H](c1ccccc1Cl)N1CCc2sccc2C1 [Clopidogrel (hydrogen sulfate)]	0.51	-0.73	-0.82	0.41	-0.02	-0.45	0.58	-1.03	-0.92
